From the supplement of paper PMC8497498
Some of the results follow. The data scatter; read single values as rough.

Tests used:
Conditions in all cases: 10 µM
[1] = test system: Plasmodium vivax liver stage (primary human hepatocyte culture); assay: hypnozoite quantity inhibition (% inhibition); higher = more active against hypnozoites
[2] = test system: Plasmodium vivax liver stage (primary human hepatocyte culture); assay: schizont net growth area inhibition (% inhibition); higher = more active against liver schizonts
[3] = test system: primary human hepatocytes; assay: hepatic nuclei reduction relative to DMSO (100 - % of negative control); higher = more toxic to hepatocytes
[4] = assay mode: Prophylactic (treated before or shortly after infection), fixed day 6 post-infection
[5] = assay mode: Radical Cure (treated from day 5 post-infection for 3 days), fixed day 8 post-infection

SMILES	hypnozoite quantity inhibition [1, 4]	hypnozoite quantity inhibition [1, 5]	schizont net growth area inhibition [2, 4]	schizont net growth area inhibition [2, 5]	hepatic nuclei reduction [3, 4]	hepatic nuclei reduction [3, 5]
CCOc1c(Cl)cc(CNCC(O)c2ccccc2)cc1OC (centres undefined)	-15.8	23.7	-8.6	19.4	9%	-9%
CS(=O)(=O)c1ccc(-c2cnc(N)c(-c3ccc(C(F)(F)F)nc3)n2)cc1	99	26	102	105	-12%	-9%
O=C(NCc1nnc2n1CCCCC2)c1ccc(-c2ccc(F)cc2)o1	-102	-49	18	-124	-4%	3%
FC(F)(F)c1ccc(N(c2cccnc2)C2CCN(c3ccc(C(F)(F)F)cn3)CC2)cc1	-53	-20	-56.6	-24.9	-8%	-3%
CN1CCCC1CCO[C@](C)(c1ccccc1)c1ccc(Cl)cc1 (some centres undefined)	38	11	93.6	61.3	11%	-2%
CC(C)(C)NCc1cc(Nc2ccnc3cc(Cl)ccc23)c2c(c1O)CCCC2	-31	20	-108	-12.2	1%	-5%
CCS(=O)(=O)N(Cc1ccco1)Cc1cc2ccc(C)cc2nc1O	14	0	-45.8	12.5	-1%	7%
CN(C)[C@@H]1C(O)=C(C(N)=O)C(=O)[C@@]2(O)C(O)=C3C(=O)c4c(O)cccc4[C@@](C)(O)[C@H]3C[C@@H]12	-50	-28	28.4	24.2	-4%	33%
CN(Cc1cnc2nc(N)nc(N)c2n1)c1ccc(C(=O)N[C@@H](CCC(=O)O)C(=O)O)cc1	-27	31	37.3	10.2	-11%	-6%
Cc1ccc(Cn2c(N3CCC(C(=O)NCc4cccs4)CC3)nc3ccccc32)cc1	19.5	45	93.8	10	-7%	4%
CCOC(=O)c1cnc2c(C)cc(C)cc2c1Nc1ccc(OC)c(OC)c1	-22.9	-3.1	-4.8	-17.6	-17%	-2%
Cc1cccc(-c2nc(Nc3ccncn3)c3sccc3n2)n1	15	-25	90.2	-73.1	1%	-4%
COc1ccc(Cn2cnc3c(-c4ccco4)nc(Cl)nc32)cc1	11	-36	11.1	-242	-2%	-10%
CC1CS(=O)(=O)CCN1/N=C/c1ccc([N+](=O)[O-])o1 (centres undefined)	-3	-48	-10.6	36.8	-2%	-4%
COc1cccc(NC(=O)[C@H](C(C)C)n2c(=O)[nH]c3ccccc3c2=O)c1	44.8	67.9	103	36.1	10%	-2%
Cc1ccc2[nH]c3c(NCCN(C)C)ncnc3c2c1	24	-57	47	-191	0%	-5%
O=C(Nc1ccc(N2CCNCC2)cc1)c1ccn2ncc(-c3cccc(Cl)c3)c2n1	-76	-65	109	84.3	3%	12%
Oc1c2c(nc3cc(-c4ccccc4)nn13)CCCC2	-19.1	-21.4	14.1	-48	-10%	-6%
CC(Oc1ccc(NC(=O)c2cccs2)cc1)C(=O)c1ccc(Cl)cc1 (centres undefined)	-15.4	35.9	13.1	30.3	-3%	-4%
Cc1cc(C=C2SC(=Nc3ccccc3)N(C3CCCC3)C2=O)c(C)n1-c1ccc(Cl)cc1	-8.8	10.1	39.6	-98.1	0%	-5%

SMILES	hypnozoite quantity inhibition [1, 4]	hypnozoite quantity inhibition [1, 5]	schizont net growth area inhibition [2, 4]	schizont net growth area inhibition [2, 5]	hepatic nuclei reduction [3, 4]	hepatic nuclei reduction [3, 5]
CNC(=O)c1cc(S(=O)(=O)N2CCN(c3ccccn3)CC2)cs1	-52	-36	59	-75.9	-10%	-6%
CC(C)(C)n1nc(-c2ccccc2)c2c(N)ncnc21	73	-15	102	102	1%	-6%
COc1ccc2nc3cc(Cl)ccc3c(Nc3cc(CN4CCCC4)c(O)c(CN4CCCC4)c3)c2n1	-79	39	92.2	51.4	1%	2%
COc1ccc(-c2nonc2NC(=O)c2cccc(Cl)c2)cc1OC	-12.5	63.4	30.1	15.6	-7%	14%
COc1cc2[nH]c(C)c(-c3ccc(Oc4ccc(OC(F)(F)F)cc4)cc3)c(=O)c2cc1Cl	2	23	75	60.1	-10%	-12%
COc1ccccc1C(C)NCC(=O)Nc1cc(C(F)(F)F)ccc1Cl (centres undefined)	-45	-65	6.2	-70.6	-10%	-2%
Nc1ncc(Br)cc1-c1nc2cc(Cl)cnc2[nH]1	-156	-173	-56.5	-112	-5%	-4%
Nc1nccc2ccc(Oc3ccncc3)cc12	-81	9	29.1	80.2	-8%	2%
COc1ccc(C=C2SC(Nc3ccc(F)cc3)=NC2=O)c(OC)c1	-2.8	–	-31.3	-12	-11%	-12%
Cc1nc2ccccc2c(O)c1CC=C(Cl)Cl	-8.7	22.1	-10.3	-28.2	-7%	7%
O=C1[C@@H](Oc2ccccc2)[C@@H](c2ccc(Cl)cc2)N1CCn1cnc2c(NCc3ccccc3)ncnc21	-21	9	-24.1	39.8	-6%	1%
CC1=NN(c2nc3ccccc3s2)C(=O)C1Cc1cccc2ccccc12 (centres undefined)	-6	6	26.6	-147	-3%	3%
COc1ccc(C(O)(CCC(C)C)C(CN2CCOCC2)c2ccc(Cl)cc2)cc1 (centres undefined)	27.8	23.7	54.5	-7.1	-2%	1%
C=C(NC(=O)C(=C)NC(=O)c1csc(C2=NC3c4csc(n4)C4NC(=O)c5csc(n5)C(C(C)(O)C(C)O)NC(=O)C5CSC(=N5)C(=CC)NC(=O)C(C(C)O)NC(=O)c5csc(n5)C3(CC2)NC(=O)C(C)NC(=O)C(=C)NC(=O)C(C)NC(=O)C(C(C)CC)NC2C=Cc3c(C(C)O)cc(nc3C2O)C(=O)OC4C)n1)C(N)=O (centres undefined)	12	-4	98.9	42.4	10%	-2%
COc1ccc2c(=O)cc(C(Cl)(Cl)Cl)oc2c1	-11.4	26.5	-8.1	-62.9	0%	-1%
CN1CCN(c2ncnc3c2[nH]c2ccc(Cl)cc23)CC1	8.8	12.8	34.8	-47.3	-1%	-10%
CC(=O)N(CCN(C(=O)c1ccc(F)cc1)c1ccccc1)c1ccccc1	-11	-15	-10.3	-79.2	-12%	-3%
COc1ccc(OC)c(NCc2ccc3nc(N)nc(N)c3c2Cl)c1	-89	19	96.3	45	-8%	0%
CC1CCCC(CC2Cc3cc(O)cc(O)c3C(=O)O2)O1 (centres undefined)	-55	7	4.6	32.3	1%	-3%
c1ccc2cc3c(Nc4ccc(N5CCOCC5)cc4)ccnc3cc2c1	-13.2	35.9	-80.2	-19.3	-7%	-4%

SMILES	hypnozoite quantity inhibition [1, 4]	hypnozoite quantity inhibition [1, 5]	schizont net growth area inhibition [2, 4]	schizont net growth area inhibition [2, 5]	hepatic nuclei reduction [3, 4]	hepatic nuclei reduction [3, 5]
COc1ccc(CNC2CCN(c3ccc(NC(=O)c4cccc(Cl)c4)cc3)CC2)cc1OC	-40.7	24.4	-51.7	58.8	-2%	9%
COc1cc2c(cc1OC)C1=NNC(=O)C1=NC(C)(C)C2	-24	31.9	-25.8	-49.1	2%	-2%
COc1ccc(C2CC(c3cccs3)=NN2C(=O)c2ccco2)cc1OC (centres undefined)	-3	1	-13.2	-52.4	-8%	9%
O=c1cc(NC2CCN(CCCc3ccccc3)CC2)c2cc(Cl)ccc2o1	-22.1	67.3	20.4	-83.4	0%	-6%
CCCCCCC(O)(c1ccc(F)cc1)C(CN1CCOCC1)c1ccccc1 (centres undefined)	-7	-0.8	-12.9	-3.8	6%	-5%
CC1CCC2C(C)C(O)OC3OC4(C)CCC1C32OO4 (centres undefined)	14	23	11.7	-6.3	-14%	-4%
Brc1c(-c2ccc3c(c2)OCO3)nc2ncccn12	-3	-25	74.2	-126	-8%	-9%
Cc1cc2nc3c(=O)[nH]c(=O)nc-3n(CC(O)C(O)C(O)CO)c2cc1C (centres undefined)	-39	41	-105	-23.1	-4%	0%
Cc1cc(C)nc(-n2nc(C)cc2Nc2ccccc2)n1	15	-20	25.7	-41.2	4%	7%
CN1CCN(c2cc(-c3ccc(F)cc3)nc(-c3ccncc3)n2)CC1	25	16	15.3	21.4	-5%	-8%
O=C(Nc1cnc2ccccc2c1)c1cccc(-n2cnnn2)c1	-3	43	-10.4	59.2	-9%	2%
Cc1cc(OCC(=O)NCc2ccccc2)c2cc(Br)ccc2n1	-11	-2	23.3	-52.6	3%	-3%
CC(C)(C)CC(C)(C)NCC(O)COc1ccc(Cl)cc1Cl (centres undefined)	26.2	19.8	39.9	32.3	33%	-4%
O=C(Nc1ccccc1)c1ccc(-c2cc3ccncc3cc2OC2CCNCC2)s1	11	-2	71.6	-19.8	6%	2%
Cc1ccnc(Nc2nc(-c3ccccn3)cs2)c1	29	43	106	79.5	15%	5%
CCc1nc(N)nc(N)c1-c1ccc(Cl)cc1	-92	15	-51.6	-2.6	-14%	7%
CN1CCN(c2nc(Nc3ccc(O)cc3)nc3ccccc23)CC1	-7.6	21	3.9	-152	-2%	-10%
CC(C)(C)c1cnc(NC(=O)c2ccccc2O)s1	-24	24	-28.7	11.5	-3%	-4%
COc1ccc(N(CCc2cccc(C)n2)C(C)=O)cc1	7	-20	6.1	-88.6	-3%	-8%
Nc1cccnc1Nc1ccc(Cl)cc1	-17	16	-12.9	-4.6	12%	-7%

Single entries from the results shown.
hypnozoite quantity inhibition [1, 4] with Cc1ccnc(Nc2nc(-c3ccccn3)cs2)c1 is entered as 29
hepatic nuclei reduction [3, 5] with O=c1cc(NC2CCN(CCCc3ccccc3)CC2)c2cc(Cl)ccc2o1 is entered as -6%
hepatic nuclei reduction [3, 5] with CN1CCN(c2cc(-c3ccc(F)cc3)nc(-c3ccncc3)n2)CC1 is entered as -8%
